Data as given in PubChem BioAssay AID651804 (National Center for Advancing Translational Sciences (NCATS), 2012).
The whole screen tested about 1,200 compounds, of which about 20 (2%) were called active. Another 23% or so got no clear call; they are omitted. Calls follow the shape of the dose curve; as a rule, active = well fitted inhibition curve with a large enough effect; inconclusive = small, poorly fitted or top-dose-only effect; inactive = no such curve, though single readings can be large or run the other way. The list shows a part of the results.

Protein sequences, listed by entry. Tags and fused reporters are not part of them. Lines headed by an entry give the natural chain unless they say otherwise; changes in a name come on top.
UniProt P11308: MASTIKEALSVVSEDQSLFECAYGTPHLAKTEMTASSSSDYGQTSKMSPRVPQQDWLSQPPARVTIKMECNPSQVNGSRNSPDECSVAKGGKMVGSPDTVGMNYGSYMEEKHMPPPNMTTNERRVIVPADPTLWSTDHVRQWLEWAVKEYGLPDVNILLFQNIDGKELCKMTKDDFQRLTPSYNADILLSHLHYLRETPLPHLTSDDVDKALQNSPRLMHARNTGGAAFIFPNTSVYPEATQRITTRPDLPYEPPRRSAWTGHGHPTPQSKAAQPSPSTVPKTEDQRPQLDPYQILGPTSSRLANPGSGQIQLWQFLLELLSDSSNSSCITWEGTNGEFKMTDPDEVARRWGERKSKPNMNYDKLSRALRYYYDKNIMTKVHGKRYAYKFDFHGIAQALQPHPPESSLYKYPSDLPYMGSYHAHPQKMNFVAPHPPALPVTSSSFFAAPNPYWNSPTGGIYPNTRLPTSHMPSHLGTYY

Each compound was assayed against Transcriptional regulator ERG (Homo sapiens) (UniProt P11308) (assay: qHTS for Small Molecule Inhibitors of the ERG Ets/DNA interaction: HTRF assay against cherry picks). Settings: His-ERG Ets domain with biotin-DNA; series mostly up to 154 µM; activity change, negative = inhibition: at the top concentration.
Procedure, shortened: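 Compounds were incubated 10 min at RT with ERG Ets domain and biotinylated DNA (each added as 200 nM solution) in pH 7.5 Tris/KCl/EDTA/DTT buffer. Binding was read as FRET (ex 320, em 615 and 665 nm) between anti-His donor and streptavidin acceptor.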

Activity change, negative = inhibition, inactive:
Cc1cc(/C=C(\C#N)C(=O)Nc2ccccc2)c(C)n1-c1ccc(C(=O)O)cc1 -62.2%, COc1cc(CNc2ccc(O)cc2)cc(Br)c1OCc1ccccc1 -2.76%, O=C(CCn1cccc1)NCc1ccccc1 2.02%, O=C(NCCSc1c[nH]c2ccccc12)c1ccc(Cl)cc1 0.955%, CCn1cc(C(=O)N2CCCC(N3CCN(c4cccc(C(F)(F)F)c4)CC3)C2)cn1 (configuration not stated) -25.5%, Nc1ccc(S(=O)(=O)Nc2ncccn2)cc1 -20.5%, Cc1ccccc1C(=O)Oc1c(Sc2ccccc2)c(C)nn1C(C)(C)C -18.4%, O=C(CSc1nc2ccccc2o1)N/N=C/c1ccc(C(=O)O)cc1 -31.1%, CN(C)c1ccc(/C=C(\C#N)c2nc(-c3ccc(Cl)c(Cl)c3)cs2)cc1 -19.4%, COC(=O)C/C(C)=N/Nc1ccc(S(=O)(=O)N2CCCC2)cc1[N+](=O)[O-] -58.8%, CCCCN(C(=O)Cc1ccc(S(=O)(=O)N2CCOCC2)s1)c1c(N)n(CCCC)c(=O)[nH]c1=O 1.54%, Cc1cccc(NC(=O)c2ccccc2NC(=O)c2ccco2)c1 -1.8%, Cc1nc2nc[nH]n2c(=O)c1NS(=O)(=O)c1ccc(F)cc1 -4.19%, CCC(C)NCCOc1ccc(C)cc1[N+](=O)[O-] (configuration not stated) -18.4%, Cc1cccc(-c2cnn(-c3cccc([N+](=O)[O-])c3)c2N)c1 -76%, COc1ccc(CC(=O)Nc2ccc(-c3nnc(-c4ccccc4)o3)cc2)cc1 -29.6%, COc1ccc(NC(=O)C2C3CCC(O3)C2C(=O)O)c(C)c1 (configuration not stated) -4.24%, CC1CCCC(NC(=O)COC(=O)/C=C/c2ccco2)C1C (configuration not stated) -18%, C=CCn1c(=O)c2ccccc2n2c(SCc3nc(N)nc(Nc4ccccc4C)n3)nnc12 -22.2%, CC(=O)Nc1ccc(SCC(=O)N(C)C2CCS(=O)(=O)C2)cc1 (configuration not stated) -6.63%, CCSc1nc2c(c(=O)[nH]c(=O)n2C)n1CC(O)COc1ccccc1 (configuration not stated) 9.5%, Cc1ccc(-c2[nH]c(-c3ccc(C(=O)O)cc3)nc2-c2ccccc2)cc1 -27.9%, Cc1ccc([N+](=O)[O-])c2c1C(N1CC(C)OC(C)C1)C(C)(C)O2 (configuration not stated) -29.7%, C[C@H](CO)N1C[C@H](C)[C@@H](CN(C)CC2CC2)Oc2c(NC(=O)C3CC3)cccc2C1=O -4.08%, O=C1N/C(=C/c2cccs2)C(=O)N1Cc1ccc(F)cc1 -21.1%, CCN1CCN(CCCN(Cc2cccs2)C(=S)Nc2ccccc2C)CC1 -37.5%, Oc1ccc(NCc2ccccc2OCc2ccccc2Cl)cc1 -1.96%, COc1ccc(Cl)cc1NC(=O)COC(C)=O -20.4%, COC(=O)[C@H](Cc1ccccc1)NC(=O)Nc1ccc(OC)cc1 -0.796%, O=S(=O)(c1ccccc1)c1cnc(-c2cccnc2)nc1-c1ccccc1 -15.6%, O=c1ccc2cc(S(=O)(=O)Nc3ccccc3F)ccc2o1 -11.3%, CC1COc2ccccc2N1S(=O)(=O)c1ccc(Cl)cc1 (configuration not stated) -26.5%, O=C(NCC(=O)N(c1cccc(F)c1)C(C(=O)NC1CCCC1)c1cccnc1)c1cccs1 (configuration not stated) -0.955%, COc1cc(C(=O)Cc2nc3ccccc3n2C)cc(OC)c1OC -18.5%, COc1cc(CNCc2ccncc2)cc(OC)c1OC -28.3%, O=C1/C(=C/c2cccs2)Sc2ccccc21 -26.2%, CCOc1ccc(NC(=O)Nc2cccn(Cc3ccccc3)c2=O)cc1 -13.9%, COC(=O)c1ccc(NC(=O)c2cccc(C)c2[N+](=O)[O-])cc1 -10.2%, CCC(=O)Nc1c(C)ccc2nsnc12 -23.4%, Cn1c(SCC(=O)N2CCN(C(=O)c3ccco3)CC2)nnc1-c1ccc(NS(C)(=O)=O)cc1 -23%, CCN1C(=O)CSc2ccc(C(=O)NC3CCCCC3)cc21 0%, O=C1[C@H]2[C@@H](c3ccc(F)cc3)N3C(=O)N(c4cccc(F)c4)C(=O)[C@@]3(Cc3ccccc3)[C@H]2C(=O)N1C1CCCCC1 -28.6%, CCCCN(C(=S)Nc1cccc(SC)c1)C1CCN(C(C)=O)CC1 -9.07%, CCN(CC(=O)N1CCCCCC1)S(=O)(=O)c1ccc(Cl)cc1 -18.2%, COc1ccc(N(CC(=O)NCc2ccco2)S(=O)(=O)c2ccc(C)cc2)cc1 -2.92%, CCN(CC)CCN1C(=O)C2C(C(=O)Nc3cccc(SC)c3)C3C=CC2(O3)C1C(=O)NC1CCCC(C)C1C (configuration not stated) -9.76%, O=C(NCC1CCCCC1)c1cccc(-c2ccc(O)cc2)c1 -23.5%, CC(Oc1ccc(C(=O)c2ccc(F)cc2)cc1)C(=O)N1CCOCC1 (configuration not stated) -25.3%, CCc1nnc2c(N3CCN(c4cccc(C(F)(F)F)c4)CC3)nc3ccccc3n12 -8.91%, O=C(N1CCc2[nH]c3ccccc3c2C1)C(F)(F)F -14%, CN(C)S(=O)(=O)c1ccc(N2CCCC2)c(C(=O)N2CCC(C(N)=O)CC2)c1 -24.4%, CN(CC(=O)OCC(=O)NCC(F)(F)F)S(=O)(=O)c1ccc(Cl)cc1 0.849%, CCOC(=O)CC1COCCN1Cc1cn[nH]c1-c1cc(OC)c(OC)c(OC)c1 (configuration not stated) -1.17%, CS(=O)(=O)Nc1ccc(N2CCN(c3ccc(C(F)(F)F)cn3)CC2)nc1 -29.3%, CC(C)Cc1ccc(C(C)C(=O)O)cc1 (configuration not stated) -10.7%, CC1CCN(S(=O)(=O)c2ccc(Cl)s2)CC1 -23%, O=C(C1CC(=O)N(c2ccc(F)cc2)C1)N1CCC(c2nc3ccccc3[nH]2)CC1 (configuration not stated) -28.4%, CCCCNC(=O)CCC(=O)NNc1nc2ccccc2c2nc(C)nn12 -38.5%, Cc1cc(C(=O)COC(=O)C23CC4CC(CC(O)(C4)C2)C3)c(C)n1C -28.2%, CCOC(=O)c1oc2ccc(S(=O)(=O)n3nc(-c4ccc(OC)cc4)cc3N)cc2c1C -16.7%, Cc1ccc(NC(=S)NCc2ccc3c(c2)cc(C)n3C)c(C)c1 82.1%, CCn1c(=O)cc(OCC(=O)Nc2ccccc2C#N)c2ccccc21 69.3%, NC(=O)C1(N2CCCCC2)CCN(C(=O)CSc2nc3ccccc3s2)CC1 -21.5%, CSc1nc2c(c(=O)[nH]1)C(c1cccc(Br)c1)CC(=O)N2 (configuration not stated) -7%, COc1ccc(C(=O)N(C)Cc2ccc(C)o2)cc1OC1CCN(C(C)C)CC1 -26.2%, Cc1cc(NC(=O)CCC(=O)N(CC(=O)NC2CCCC2)c2ccc(C)c(F)c2)no1 6.26%, CCOc1ccc2[nH]c3c(NCCO)ncnc3c2c1 -19.4%
